Reference: US9227852B2, “Apparatus, systems, and methods for water treatment” (McWong Environmental Technology, priority 2008, dated 2016)

What was measured:
[1] = concentration at which the average person detects the odor; cited from earlier work
[2] = Bench-scale ozone / AOP treatment of tertiary filtered effluent: UV Transmittance; conditions: Ozone Only mode

Row | SMILES | Odor threshold [1] | change in UVT ([2]; dosing levels of 10 mg/l and 15 mg/l) | increase in UVT ([2]; ozone dose of 5 mg/L)
1 | COc1c(Cl)ccc(Cl)c1Cl [2,3,6-trichloroanisole] | 7 ng/L |  | 
2 | O=[O+][O-] [Ozone] |  | decreases in UVT | 5.3%
